Measured values reported in patent US20100081631A1, “METHODS AND COMPOSITIONS FOR TREATING GASTROINTENSTIAL DISORDERS” (priority 2006, published 2010).
For at least one compound, name, drawing or mass did not settle the structure.

Test system: PI3k/Akt pathway (Akt phosphorylation) in IEC-18 cells
Assay: Akt phosphorylation Western blot in IEC-18 cell lysates
Format: cell-based, rat
Conditions: 24 hours, 5 μM SC-560, 10 μM celecoxib or 10 μM indomethacin
Procedure: Rat intestinal epithelial cells (IEC-18 cells) are immortalized normal epithelial cells purchased from the American Type Culture Collection (ATCC). For these experiments, IEC-18 cells were cultured in high glucose Delbecco's Modified Eagle's Medium (DMEM) at 37° C. under 5% CO2 and incubated for 24 hours with either a) 5 μM of the COX-1 inhibitor SC-560 (purchased from Sigma-Aldrich, St. Louis, Mo.), 10 μM of the COX-2 inhibitor celecoxib, or 10 μM of the COX-½ inhibitor indomethacin. Drugs were provided in a 0.1% dimethylsulfoxide (DMSO) vehicle.
The PI3k/Akt pathway is monitored using the following general assay procedure. Following incubation cell lysates are collected with lysis buffer containing phosphatase and proteinase inhibitors. The supernanats are collected and protein concentrations are measured. Then SDS(sodium dodecyl sulfate) sample buffers are made to make sure final protein concentration is equal in each sample and boiled for minutes at 100° C. Then the samples are loaded on to a 4%-12% pre-made SDS-PAGE (polyacrylamide gel electrophoresis) and the gel is developed under electrophoresis. […] Finally, the HRP is detected using a enzymatically initiated chemiluminescent substrate such as Super Signal® ELISA Pico Substrates, available from Thermo Fisher Scientific.

For `Cc1ccc(-c2cc(C(F)(F)F)nn2-c2ccc(S(N)(=O)=O)cc2)cc1` [celecoxib], the Akt phosphorylation was “inhibited Akt phosphorylation”.
